The other results are listed elsewhere or left out.
Assays:
Test in all cases: log2 fold change, soluble protein after heating vs DMSO (PISA); higher = thermal stabilisation; K562 lysate, 10 uM; active = over 0.2 and 3.5 SD of the protein, either way, in both replicates (recomputed)
[1] = compound: CS(=O)(=O)CCNCc1ccc(-c2ccc3ncnc(Nc4ccc(OCc5cccc(F)c5)c(Cl)c4)c3c2)o1 [lapatinib]
Outline: (§1)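 Quantification was by TMTpro 16plex LC-MS/MS with equalised channel sums, applied to the supernatant after 21,000xg for 90 min. Samples were crude K562 extract at 1 mg/mL protein in PBS pH 7.4 with 1 mM MgCl2, treated with 10 μM compound for 30 min, heated for 3 min across 48°C-58°C, pooled and brought to 0.5% NP-40 at 4°C. Values are log-two fold changes in thermal stability relative to solvent controls, from duplicates.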

Amino acid sequences for entries named in this document (tags omitted). A change or cut given only in a name is not applied to a line headed by its entry.
UniProt P37198: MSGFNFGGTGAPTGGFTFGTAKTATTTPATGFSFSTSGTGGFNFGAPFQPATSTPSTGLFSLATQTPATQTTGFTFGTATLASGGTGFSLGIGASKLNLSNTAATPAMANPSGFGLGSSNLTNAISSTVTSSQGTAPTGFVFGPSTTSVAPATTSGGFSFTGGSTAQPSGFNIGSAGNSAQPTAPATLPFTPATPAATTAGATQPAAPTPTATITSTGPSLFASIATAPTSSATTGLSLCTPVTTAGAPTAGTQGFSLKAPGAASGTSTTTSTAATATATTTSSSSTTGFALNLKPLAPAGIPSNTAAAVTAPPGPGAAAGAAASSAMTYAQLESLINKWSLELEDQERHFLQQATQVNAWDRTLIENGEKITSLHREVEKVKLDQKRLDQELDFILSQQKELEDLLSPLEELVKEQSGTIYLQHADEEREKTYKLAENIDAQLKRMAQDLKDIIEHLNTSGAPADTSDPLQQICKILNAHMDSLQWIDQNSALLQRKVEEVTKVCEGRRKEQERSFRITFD
UniProt O43913: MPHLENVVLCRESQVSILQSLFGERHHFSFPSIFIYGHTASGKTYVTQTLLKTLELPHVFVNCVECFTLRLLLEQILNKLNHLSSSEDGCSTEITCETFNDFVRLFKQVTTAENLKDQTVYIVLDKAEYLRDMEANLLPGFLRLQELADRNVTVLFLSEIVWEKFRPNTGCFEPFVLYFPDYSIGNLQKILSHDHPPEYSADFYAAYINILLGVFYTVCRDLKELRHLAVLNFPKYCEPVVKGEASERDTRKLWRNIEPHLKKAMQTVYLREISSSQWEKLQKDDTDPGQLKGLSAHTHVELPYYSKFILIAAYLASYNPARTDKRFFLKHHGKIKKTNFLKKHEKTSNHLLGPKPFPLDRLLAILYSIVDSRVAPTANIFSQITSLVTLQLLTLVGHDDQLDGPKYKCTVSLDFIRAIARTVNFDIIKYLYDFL
UniProt Q9NVE7: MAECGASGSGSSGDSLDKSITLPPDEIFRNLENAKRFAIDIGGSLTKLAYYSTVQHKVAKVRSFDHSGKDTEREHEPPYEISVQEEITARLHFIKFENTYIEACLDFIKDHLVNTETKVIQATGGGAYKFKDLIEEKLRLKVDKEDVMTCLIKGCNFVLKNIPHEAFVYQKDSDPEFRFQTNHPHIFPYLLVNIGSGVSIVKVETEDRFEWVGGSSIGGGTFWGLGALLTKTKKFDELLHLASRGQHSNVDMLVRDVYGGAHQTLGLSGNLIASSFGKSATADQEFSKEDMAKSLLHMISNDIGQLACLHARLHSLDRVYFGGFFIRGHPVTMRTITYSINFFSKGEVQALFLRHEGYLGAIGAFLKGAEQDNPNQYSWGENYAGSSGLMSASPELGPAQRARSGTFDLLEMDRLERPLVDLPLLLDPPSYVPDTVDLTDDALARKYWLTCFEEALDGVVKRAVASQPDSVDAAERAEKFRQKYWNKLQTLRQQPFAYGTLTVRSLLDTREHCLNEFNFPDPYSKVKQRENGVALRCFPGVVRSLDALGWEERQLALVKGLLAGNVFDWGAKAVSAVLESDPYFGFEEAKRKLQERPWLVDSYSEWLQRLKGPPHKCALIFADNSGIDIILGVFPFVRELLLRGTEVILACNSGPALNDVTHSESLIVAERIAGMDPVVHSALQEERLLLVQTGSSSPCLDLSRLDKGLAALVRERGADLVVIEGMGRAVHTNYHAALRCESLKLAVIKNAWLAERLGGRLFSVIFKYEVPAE
UniProt Q96FW1, whole entry, looked up: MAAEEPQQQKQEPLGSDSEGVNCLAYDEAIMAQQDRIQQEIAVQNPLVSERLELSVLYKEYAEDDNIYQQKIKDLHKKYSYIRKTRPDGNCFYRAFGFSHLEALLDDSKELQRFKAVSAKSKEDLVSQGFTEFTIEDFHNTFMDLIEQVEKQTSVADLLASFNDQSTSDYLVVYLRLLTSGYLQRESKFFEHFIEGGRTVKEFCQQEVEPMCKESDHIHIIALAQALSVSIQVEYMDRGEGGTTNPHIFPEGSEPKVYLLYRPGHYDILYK
UniProt Q8TEM1: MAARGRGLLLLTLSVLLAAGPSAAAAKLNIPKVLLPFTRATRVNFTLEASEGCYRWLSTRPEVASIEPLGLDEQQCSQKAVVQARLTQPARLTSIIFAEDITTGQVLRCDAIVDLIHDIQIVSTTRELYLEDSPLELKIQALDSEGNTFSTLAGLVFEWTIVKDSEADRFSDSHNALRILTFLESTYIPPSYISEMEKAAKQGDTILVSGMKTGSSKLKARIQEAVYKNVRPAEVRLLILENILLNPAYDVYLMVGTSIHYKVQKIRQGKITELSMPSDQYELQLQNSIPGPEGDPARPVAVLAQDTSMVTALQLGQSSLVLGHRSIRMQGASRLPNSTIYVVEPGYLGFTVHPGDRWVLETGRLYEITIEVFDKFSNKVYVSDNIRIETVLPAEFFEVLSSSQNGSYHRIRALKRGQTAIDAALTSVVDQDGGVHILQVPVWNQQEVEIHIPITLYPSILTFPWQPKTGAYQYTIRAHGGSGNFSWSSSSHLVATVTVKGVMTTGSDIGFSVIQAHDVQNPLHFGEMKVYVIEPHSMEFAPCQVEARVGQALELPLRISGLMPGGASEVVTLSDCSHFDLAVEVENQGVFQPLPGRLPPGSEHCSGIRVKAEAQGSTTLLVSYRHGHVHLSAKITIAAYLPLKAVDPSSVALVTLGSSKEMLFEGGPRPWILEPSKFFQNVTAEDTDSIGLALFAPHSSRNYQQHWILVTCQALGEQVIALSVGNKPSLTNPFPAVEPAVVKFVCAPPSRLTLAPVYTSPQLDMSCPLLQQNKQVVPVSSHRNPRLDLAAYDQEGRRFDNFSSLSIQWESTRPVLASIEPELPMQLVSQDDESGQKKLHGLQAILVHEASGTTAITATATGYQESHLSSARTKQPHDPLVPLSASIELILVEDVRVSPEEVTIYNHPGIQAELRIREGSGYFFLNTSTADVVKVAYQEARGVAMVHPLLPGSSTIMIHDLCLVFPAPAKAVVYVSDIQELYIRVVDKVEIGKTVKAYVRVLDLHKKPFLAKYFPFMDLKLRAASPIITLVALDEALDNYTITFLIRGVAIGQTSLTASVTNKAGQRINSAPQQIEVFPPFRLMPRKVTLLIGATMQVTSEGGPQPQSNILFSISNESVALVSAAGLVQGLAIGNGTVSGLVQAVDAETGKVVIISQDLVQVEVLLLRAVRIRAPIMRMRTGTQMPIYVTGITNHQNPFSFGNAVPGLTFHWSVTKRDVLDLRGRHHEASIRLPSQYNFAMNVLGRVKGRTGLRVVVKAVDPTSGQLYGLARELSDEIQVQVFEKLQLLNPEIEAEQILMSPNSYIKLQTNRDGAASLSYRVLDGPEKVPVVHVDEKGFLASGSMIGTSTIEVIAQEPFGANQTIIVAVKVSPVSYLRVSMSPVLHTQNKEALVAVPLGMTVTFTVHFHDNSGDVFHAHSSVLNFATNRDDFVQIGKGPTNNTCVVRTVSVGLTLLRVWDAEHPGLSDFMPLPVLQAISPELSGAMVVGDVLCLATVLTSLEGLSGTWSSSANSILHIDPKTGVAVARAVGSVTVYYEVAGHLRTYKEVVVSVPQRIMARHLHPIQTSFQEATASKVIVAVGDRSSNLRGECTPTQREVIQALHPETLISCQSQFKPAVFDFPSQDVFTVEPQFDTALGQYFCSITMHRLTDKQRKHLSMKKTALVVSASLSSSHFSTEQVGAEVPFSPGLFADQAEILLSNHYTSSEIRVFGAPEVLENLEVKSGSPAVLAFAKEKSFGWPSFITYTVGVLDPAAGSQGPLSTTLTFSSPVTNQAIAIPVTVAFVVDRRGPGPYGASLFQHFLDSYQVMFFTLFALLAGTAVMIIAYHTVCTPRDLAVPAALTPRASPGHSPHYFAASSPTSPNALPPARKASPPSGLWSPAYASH
UniProt P52948: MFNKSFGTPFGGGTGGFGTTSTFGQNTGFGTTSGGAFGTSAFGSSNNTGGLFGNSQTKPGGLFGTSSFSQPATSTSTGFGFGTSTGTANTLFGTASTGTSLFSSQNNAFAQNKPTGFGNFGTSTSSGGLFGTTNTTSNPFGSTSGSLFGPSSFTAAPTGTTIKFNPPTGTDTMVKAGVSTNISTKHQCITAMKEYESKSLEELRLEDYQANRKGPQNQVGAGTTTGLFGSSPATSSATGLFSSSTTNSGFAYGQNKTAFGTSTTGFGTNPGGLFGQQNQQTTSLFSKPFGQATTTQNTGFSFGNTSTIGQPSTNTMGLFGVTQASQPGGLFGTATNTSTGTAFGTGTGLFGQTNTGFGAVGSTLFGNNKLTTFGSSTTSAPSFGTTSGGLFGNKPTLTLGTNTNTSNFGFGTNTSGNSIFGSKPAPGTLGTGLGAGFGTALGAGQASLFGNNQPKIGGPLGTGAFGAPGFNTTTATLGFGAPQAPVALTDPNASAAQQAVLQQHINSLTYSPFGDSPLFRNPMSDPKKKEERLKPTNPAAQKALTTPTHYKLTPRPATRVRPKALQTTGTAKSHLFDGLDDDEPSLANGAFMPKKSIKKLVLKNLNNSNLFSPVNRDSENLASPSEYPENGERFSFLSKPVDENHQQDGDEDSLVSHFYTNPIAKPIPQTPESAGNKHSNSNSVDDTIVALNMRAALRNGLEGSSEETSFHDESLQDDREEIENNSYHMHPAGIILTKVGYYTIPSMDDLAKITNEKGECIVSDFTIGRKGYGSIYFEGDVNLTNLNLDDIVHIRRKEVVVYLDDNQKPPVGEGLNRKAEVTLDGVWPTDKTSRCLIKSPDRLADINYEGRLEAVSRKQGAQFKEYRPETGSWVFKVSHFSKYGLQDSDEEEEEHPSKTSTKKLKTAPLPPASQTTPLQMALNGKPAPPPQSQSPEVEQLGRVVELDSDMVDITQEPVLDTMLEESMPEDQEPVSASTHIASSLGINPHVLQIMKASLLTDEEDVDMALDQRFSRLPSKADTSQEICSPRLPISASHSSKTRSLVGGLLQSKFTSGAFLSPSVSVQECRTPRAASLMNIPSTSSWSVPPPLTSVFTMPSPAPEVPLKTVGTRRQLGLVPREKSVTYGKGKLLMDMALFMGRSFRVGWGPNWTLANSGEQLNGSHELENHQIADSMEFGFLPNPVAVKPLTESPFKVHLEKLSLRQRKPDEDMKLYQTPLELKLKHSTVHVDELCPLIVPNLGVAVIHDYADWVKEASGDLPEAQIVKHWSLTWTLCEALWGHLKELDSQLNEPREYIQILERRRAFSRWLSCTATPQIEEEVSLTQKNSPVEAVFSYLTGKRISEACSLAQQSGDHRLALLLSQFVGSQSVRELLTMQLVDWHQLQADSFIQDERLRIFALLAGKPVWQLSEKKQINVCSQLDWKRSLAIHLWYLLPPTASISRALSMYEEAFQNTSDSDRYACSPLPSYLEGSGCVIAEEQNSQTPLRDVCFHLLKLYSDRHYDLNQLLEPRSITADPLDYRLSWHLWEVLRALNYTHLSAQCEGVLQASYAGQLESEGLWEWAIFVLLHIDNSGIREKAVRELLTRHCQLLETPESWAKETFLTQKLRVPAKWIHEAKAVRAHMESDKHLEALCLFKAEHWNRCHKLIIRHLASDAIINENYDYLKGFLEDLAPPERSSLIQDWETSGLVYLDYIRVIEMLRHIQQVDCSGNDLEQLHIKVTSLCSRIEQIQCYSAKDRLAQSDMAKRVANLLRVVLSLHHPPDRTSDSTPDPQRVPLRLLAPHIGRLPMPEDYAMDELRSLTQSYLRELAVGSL
UniProt Q8N1F7: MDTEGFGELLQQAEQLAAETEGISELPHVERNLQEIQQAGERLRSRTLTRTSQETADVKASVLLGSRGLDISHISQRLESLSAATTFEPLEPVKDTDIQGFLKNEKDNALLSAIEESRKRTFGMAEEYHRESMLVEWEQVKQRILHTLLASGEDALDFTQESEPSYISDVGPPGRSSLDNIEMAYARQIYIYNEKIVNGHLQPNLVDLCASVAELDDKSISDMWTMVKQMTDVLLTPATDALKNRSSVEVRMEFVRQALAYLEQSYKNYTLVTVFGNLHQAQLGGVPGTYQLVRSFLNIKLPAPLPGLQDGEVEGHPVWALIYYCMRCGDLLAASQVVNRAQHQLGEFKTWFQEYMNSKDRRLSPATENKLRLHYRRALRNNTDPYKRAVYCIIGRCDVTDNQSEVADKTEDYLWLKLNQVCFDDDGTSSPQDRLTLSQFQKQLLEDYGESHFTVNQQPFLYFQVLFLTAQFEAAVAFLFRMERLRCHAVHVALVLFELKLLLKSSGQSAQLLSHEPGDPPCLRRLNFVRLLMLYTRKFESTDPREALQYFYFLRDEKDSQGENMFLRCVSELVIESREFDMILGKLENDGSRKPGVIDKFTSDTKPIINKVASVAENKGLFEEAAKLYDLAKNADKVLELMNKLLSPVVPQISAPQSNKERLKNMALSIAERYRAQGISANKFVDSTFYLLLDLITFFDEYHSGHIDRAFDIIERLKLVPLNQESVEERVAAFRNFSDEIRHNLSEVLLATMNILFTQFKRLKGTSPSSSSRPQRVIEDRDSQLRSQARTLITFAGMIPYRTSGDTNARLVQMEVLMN

[2] = compound: CS(=O)(=O)N1CCN(Cc2cc3nc(-c4cccc5[nH]ncc45)nc(N4CCOCC4)c3s2)CC1 [pictilisib]
Outline: as §1

[3] = compound: C[C@@H](Oc1cc(-c2cnn(C3CCNCC3)c2)cnc1N)c1c(Cl)ccc(F)c1Cl [crizotinib]
Outline: as §1

[4] = compound: C[C@H](C1=CC=C(C=C1)C(=O)NC2=C3C=CNC3=NC=C2)N
Outline: as §1

[5] = compound: C[C@H](Nc1ncnc2nc[nH]c12)c1cc2cccc(Cl)c2c(=O)n1-c1ccccc1 [duvelisib]
Outline: as §1

[6] = compound: Cc1cc(Nc2cc(CN3CCOCC3)c3nc(C)c(Cc4ccc(Cl)cc4F)n3n2)n[nH]1 [gandotinib]
Outline: as §1

[7] = compound: Cc1cc(Nc2cc(N3CCN(C)CC3)nc(Sc3ccc(NC(=O)C4CC4)cc3)n2)n[nH]1 [tozasertib]
Outline: as §1

[8] = compound: Cc1ccc(-n2nc(C(C)(C)C)cc2NC(=O)Nc2ccc(OCCN3CCOCC3)c3ccccc23)cc1 [doramapimod]
Outline: as §1

[9] = compound: Cc1ccc(NC(=O)c2ccc(CN3CC[C@H](N(C)C)C3)c(C(F)(F)F)c2)cc1Nc1nccc(-c2cncnc2)n1 [bafetinib]
Outline: as §1

[10] = compound: Cc1cccc(CC(=O)N2CCc3c2ccc(-c2cn(C)c4ncnc(N)c24)c3F)n1
Outline: as §1

[11] = compound: Cc1cn(-c2cc(NC(=O)c3ccc(C)c(Nc4nccc(-c5cccnc5)n4)c3)cc(C(F)(F)F)c2)cn1 [nilotinib]
Outline: as §1

[12] = compound: Cc1nc(Nc2n[nH]c3c2CN(C(=O)N[C@H](CN(C)C)c2ccccc2)C3(C)C)c2sccc2n1
Outline: as §1

[13] = compound: Cc1nc(Nc2ncc(C(=O)Nc3c(C)cccc3Cl)s2)cc(N2CCN(CCO)CC2)n1 [dasatinib]
Outline: as §1

[14] = compound: Cc1ncc(-c2ccnc(Nc3ccc(S(C)(=O)=O)cc3)n2)n1C(C)C
Outline: as §1

[15] = compound: Cn1cc(-c2ccc3c(c2)CCN3C(=O)Cc2cccc(C(F)(F)F)c2)c2c(N)ncnc21
Outline: as §1

[16] = compound: Cn1cc(CNCC2CCN(c3ncc(C(=O)NO)cn3)CC2)c2ccccc21 [quisinostat]
Outline: as §1

[17] = compound: Cn1cncc1[C@@](N)(c1ccc(Cl)cc1)c1ccc2c(c1)c(-c1cccc(Cl)c1)cc(=O)n2C [tipifarnib]
Outline: as §1

[18] = compound: NC(=O)Nc1cc(-c2cccc(F)c2)sc1C(=O)N[C@H]1CCCNC1
Outline: as §1

[19] = compound: NC(=O)c1cnc(N[C@@H]2CCCC[C@@H]2N)nc1Nc1cccc(-n2nccn2)c1
Outline: as §1

[20] = compound: NC1(c2ccc(-c3nc4ccn5c(=O)[nH]nc5c4cc3-c3ccccc3)cc2)CCC1
Outline: as §1

Measured: log2 fold change

OGFOD2 (UniProt Q6N063)
inactive: [1] 0.034 | [2] -0.031 | [3] -0.017 | [4] -0.029 | [5] 0.045 | [6] -0.016 | [7] 0.019 | [8] -0.013 | [9] -0.09 | [10] 0.032 | [11] -0.002 | [12] 0.005 | [13] 0.006 | [14] 0.063 | [15] 0.048 | [16] 0.031 | [17] 0.026 | [18] 0.049 | [19] -0.017 | [20] 0.049

NUP62 (UniProt P37198)
inactive: [1] 0.026 | [2] 0.026 | [3] 0.074 | [4] -0.063 | [5] -0.032 | [6] -0.03 | [7] 0.053 | [8] -0.034 | [9] 0.041 | [10] 0.029 | [11] 0.055 | [12] -0.007 | [13] -0.014 | [14] -0.016 | [15] -0.006 | [16] 0.075 | [17] -0.065 | [18] 0.005 | [19] -0.012 | [20] 0.038

PAK1IP1 (UniProt Q9NWT1)
inactive: [1] -0.042 | [2] -0.027 | [3] 0.03 | [4] -0.01 | [5] 0.026 | [6] 0.04 | [7] 0.028 | [8] 0.022 | [9] -0.044 | [10] 0 | [11] 0 | [12] -0.004 | [13] -0.01 | [14] 0.012 | [15] 0.033 | [16] -0.02 | [17] -0.008 | [18] 0.005 | [19] -0.019 | [20] -0.012

ORC5 (UniProt O43913)
inactive: [1] -0.014 | [2] -0.049 | [3] -0.137 | [4] -0.009 | [5] -0.016 | [6] -0.113 | [7] -0.023 | [8] 0.027 | [9] -0.069 | [10] 0.045 | [11] -0.043 | [12] -0.004 | [13] -0.047 | [14] 0.019 | [15] 0.098 | [16] -0.107 | [17] -0.004 | [18] 0.098 | [19] 0.047 | [20] -0.073

PAICS (UniProt E9PBS1)
inactive: [1] -0.189 | [2] -0.177 | [3] 0.173 | [4] -0.075 | [5] 0.077 | [6] -0.147 | [7] 0.185 | [8] -0.032 | [9] 0.008 | [10] -0.038 | [11] -0.079 | [12] -0.026 | [13] 0.044 | [14] 0.117 | [15] 0.244 | [16] -0.318 | [17] 0.266 | [18] 0.273 | [19] 0.143 | [20] 0.312

PANK4 (UniProt Q9NVE7)
inactive: [1] -0.019 | [2] -0.037 | [3] -0.052 | [4] -0.049 | [5] -0.009 | [6] 0.125 | [7] 0.001 | [8] -0.001 | [9] -0.06 | [10] 0.022 | [11] 0.028 | [12] -0.006 | [13] -0.086 | [14] -0.006 | [15] 0.003 | [16] -0.054 | [17] 0.009 | [18] 0.038 | [19] -0.003 | [20] -0.045

OVCA2 (UniProt Q8WZ82)
inactive: [1] -0.002 | [2] -0.025 | [3] -0.055 | [4] 0.11 | [5] 0.103 | [6] -0.099 | [7] 0.046 | [8] 0.051 | [9] 0.016 | [10] 0.006 | [11] 0.019 | [12] 0 | [13] -0.058 | [14] -0.054 | [15] -0.12 | [16] 0.023 | [17] 0.077 | [18] -0.022 | [19] 0.075 | [20] -0.015

2 records picked at random from those above, as already listed:
PANK4 (UniProt Q9NVE7)
inactive: [1] -0.019 | [2] -0.037 | [3] -0.052 | [4] -0.049 | [5] -0.009 | [6] 0.125 | [7] 0.001 | [8] -0.001 | [9] -0.06 | [10] 0.022 | [11] 0.028 | [12] -0.006 | [13] -0.086 | [14] -0.006 | [15] 0.003 | [16] -0.054 | [17] 0.009 | [18] 0.038 | [19] -0.003 | [20] -0.045

PAK1IP1 (UniProt Q9NWT1)
inactive: [1] -0.042 | [2] -0.027 | [3] 0.03 | [4] -0.01 | [5] 0.026 | [6] 0.04 | [7] 0.028 | [8] 0.022 | [9] -0.044 | [10] 0 | [11] 0 | [12] -0.004 | [13] -0.01 | [14] 0.012 | [15] 0.033 | [16] -0.02 | [17] -0.008 | [18] 0.005 | [19] -0.019 | [20] -0.012

(listing goes on)

ORC2 (UniProt Q13416)
inactive: [1] 0.016 | [2] -0.049 | [3] -0.074 | [4] 0.063 | [5] -0.068 | [6] -0.087 | [7] -0.017 | [8] -0.007 | [9] -0.034 | [10] 0.011 | [11] 0 | [12] 0.009 | [13] -0.036 | [14] -0.014 | [15] -0.004 | [16] -0.016 | [17] 0.004 | [18] 0.095 | [19] -0.004 | [20] -0.029

OTUB1 (UniProt Q96FW1)
inactive: [1] 0.004 | [2] -0.034 | [3] -0.002 | [4] -0.035 | [5] 0 | [6] 0.019 | [7] -0.021 | [8] 0.005 | [9] -0.042 | [10] -0.016 | [11] 0.031 | [12] -0.006 | [13] 0.028 | [14] -0.006 | [15] 0.003 | [16] 0.001 | [17] -0.026 | [18] 0.002 | [19] -0.037 | [20] 0.01

PARL (UniProt Q9H300)
inactive: [1] -0.05 | [2] 0.032 | [3] -0.034 | [4] -0.095 | [5] -0.038 | [6] 0.018 | [7] 0.018 | [8] 0.011 | [9] -0.151 | [10] 0.018 | [11] 0.053 | [12] -0.018 | [13] 0.041 | [14] 0.043 | [15] -0.012 | [16] -0.022 | [17] -0.042 | [18] 0.038 | [19] -0.003 | [20] -0.007

NUP210 (UniProt Q8TEM1)
inactive: [1] -0.074 | [2] -0.076 | [3] -0.028 | [4] -0.034 | [5] 0.013 | [6] -0.08 | [7] -0.012 | [8] -0.017 | [9] -0.007 | [10] 0.044 | [11] -0.019 | [12] -0.008 | [13] -0.08 | [14] 0.009 | [15] 0.001 | [16] 0.084 | [17] -0.043 | [18] -0.01 | [19] 0.059 | [20] -0.019

OPTN (UniProt Q96CV9)
inactive: [1] -0.015 | [2] -0.026 | [3] 0.017 | [4] -0.014 | [5] 0.034 | [6] 0.009 | [7] -0.005 | [8] -0.003 | [9] -0.035 | [10] 0.021 | [11] 0.009 | [12] 0.069 | [13] -0.026 | [14] 0.042 | [15] 0.025 | [16] 0.001 | [17] 0.006 | [18] 0.003 | [19] 0.06 | [20] 0.029

NUP98 (UniProt P52948)
inactive: [1] 0.007 | [2] -0.041 | [3] 0.017 | [4] -0.014 | [5] -0.04 | [6] 0.01 | [7] -0.033 | [8] -0.024 | [9] -0.024 | [10] 0.043 | [11] -0.041 | [12] -0.017 | [13] -0.053 | [14] -0.008 | [15] 0.031 | [16] -0.049 | [17] -0.12 | [18] 0.055 | [19] -0.002 | [20] 0.003

NUP93 (UniProt Q8N1F7)
inactive: [1] -0.011 | [2] -0.029 | [3] -0.03 | [4] -0.027 | [5] -0.03 | [6] -0.158 | [7] 0.015 | [8] 0.022 | [9] -0.054 | [10] 0.07 | [11] -0.02 | [12] 0.001 | [13] -0.098 | [14] -0.006 | [15] 0.031 | [16] 0.037 | [17] -0.04 | [18] 0.021 | [19] 0.018 | [20] -0.005

PARD3 (UniProt Q8TEW0)
inactive: [1] -0.143 | [2] -0.155 | [3] -0.096 | [4] 0.014 | [5] -0.102 | [6] 0.122 | [7] 0.064 | [8] -0.058 | [9] -0.054 | [10] 0.069 | [11] -0.114 | [12] -0.109 | [13] 0.021 | [14] -0.031 | [15] 0.024 | [16] -0.002 | [17] 0.121 | [18] 0.029 | [19] 0.199 | [20] 0.105

NXF1 (UniProt Q9UBU9)
inactive: [1] -0.064 | [2] -0.07 | [3] -0.035 | [4] 0.111 | [5] -0.013 | [6] -0.178 | [7] -0.028 | [8] 0.013 | [9] -0.02 | [10] 0.003 | [11] 0.014 | [12] -0.022 | [13] -0.075 | [14] -0.002 | [15] 0.006 | [16] -0.016 | [17] -0.003 | [18] 0.031 | [19] 0 | [20] 0.075

Reference: the supplement of paper PMC10849652
